According to PubChem BioAssay AID1745846 (National Center for Advancing Translational Sciences (NCATS), 2022):
Out of some 1,400 compounds screened, about 30 (2%) were called active. Inconclusive results (about 15%) are left out. Calls come from the whole dose curve; as a rule, active = well fitted inhibition curve with a large enough effect; inconclusive = small, poorly fitted or top-dose-only effect; inactive = flat fitted curve, though single readings scatter. The list shows a part of the results.

Assay: Firefly Luciferase Counterscreen for Inhibitors of ATXN expression
Details: luminescence; series mostly up to 57.5 µM; activity change, negative = inhibition: at the top concentration
Procedure, shortened: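 Recombinant firefly luciferase at 10 nM final in 50 mM Tris pH 7.5, 10 mM MgCl2, 0.05% BSA, 0.01% Tween20 with substrate; compounds up to 57 uM final, 10 min room temperature, end-point luminescence. Buffer-only wells define 100% inhibition.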
% is set by controls: 0 for no effect and ±100 for the full control effect; potency is the fitted concentration of half-maximal effect.

| SMILES | activity change, negative = inhibition | Potency |
| --- | --- | --- |
| Cc1c(-c2cccc(Cl)c2)nc2ccccc2c1C(=O)OC/C(O)=C(\C#N)c1nc2ccccc2[nH]1 | inactive: -9.44% |  |
| CCCn1ncc(CN2CCC(C(=O)Nc3cccc(-c4cccc(F)c4)c3)CC2)c1C | inactive: -7.08% |  |
| Cn1c(NCCN2CCCC2)nc2cc(-c3ccsc3)sc2c1=O | inactive: -2.46% |  |
| Cc1cc(C)nc(N/N=C2/CCCC/C2=C\c2ccccc2)n1 | inactive: -3.98% |  |
| CCOC(=O)C(CC)(CC)C(=O)/C=C/c1ccc(OC)cc1 | inactive: 2.01% |  |
| Cc1ccc(S(=O)(=O)/N=C(\Sc2ccccc2)c2ccccc2)cc1 | inactive: -13.3% |  |
| O=c1cc(N2CCN(c3cccc(Cl)c3)CC2)[nH]c(=O)n1C1CCCCC1 | inactive: 7.81% |  |
| CCOc1cc(/C=C(/C#N)c2nc3ccccc3[nH]2)ccc1Oc1ccc([N+](=O)[O-])cn1 | inactive: -2.22% |  |
| Cc1ccc(C(=O)N/N=C/c2nc3ccccc3n2C)cc1 | inactive: -19.4% |  |
| Cc1c(N/N=C(\C#N)C(=O)c2ccccc2)c(=O)n(-c2ccccc2)n1C | inactive: -3.2% |  |
| O=C(NNC(=O)C(c1ccccc1)c1ccccc1)c1ccccn1 | inactive: -0.424% |  |
| CC(C)(C)c1cc(C(=O)NNc2cc(C(F)(F)F)ccc2Cl)n(Cc2ccccc2)n1 | inactive: -5.25% |  |
| CN(Cc1ccccc1)C(=O)c1ccc(Nc2nc(C(N)Cc3ccccc3)cs2)nc1 (configuration not stated) | inactive: 0.41% |  |
| COCOCCn1cc(CN2CCS(=O)(=O)N(Cc3ccc(-c4ccc(OC)cc4)cc3)C(CC(C)C)C2=O)nn1 (configuration not stated) | inactive: -1.23% |  |
| C=CCc1cccc(/C=N/NC(=O)CCCNc2ccc(C)cc2)c1O | inactive: -8.26% |  |
| O=C(CSc1nnc(-c2ccc(Br)cc2)o1)Nc1cccc(C(=O)O)c1 |  | active: 3.98 µM |
| CC1CCCCN1C(=O)C1CCN(c2nc(-c3ccccc3)nc3c2CCC3)CC1 (configuration not stated) | inactive: -2.74% |  |
| COC1=CC(=O)C=C(OC)C1(O)CC(C)=O | inactive: -1.23% |  |
| Cc1cccc2sc(NNC(=O)c3ccc(S(=O)(=O)N4CCCC(C)C4)cc3)nc12 (configuration not stated) | inactive: -15.4% |  |
| CC(=O)NC(C)c1cc(Cl)c2cccnc2c1O (configuration not stated) | inactive: -4.01% |  |
| COc1ccc(NC(C)C(=O)N/N=C/c2c(O)ccc3ccccc23)cc1 (configuration not stated) | inactive: 1.12% |  |
| O=C(Nc1nc(-c2ccccc2)cs1)c1ccccc1NS(=O)(=O)c1ccc(F)cc1 |  | active: 28.2 µM |
| Cc1ccc(C(=O)NC(C)CCc2ccccc2)cc1S(=O)(=O)N1CCOCC1 (configuration not stated) | inactive: -2.51% |  |
| Cc1ccc(S(=O)(=O)Nc2cccc3cccnc23)c([N+](=O)[O-])c1 | inactive: -9.22% |  |
| COC(=O)c1ccsc1NC(=O)CN1CCN(Cc2ccc3c(c2)OCO3)CC1 | inactive: 0.15% |  |

| SMILES | activity change, negative = inhibition | Potency |
| --- | --- | --- |
| CCN(CC)S(=O)(=O)c1cccc(C(=O)N/N=C(\C)c2ccc(O)cc2O)c1 | inactive: -10.3% |  |
| Fc1ccc(Nc2nnc(C(F)(F)F)s2)cc1Cl | inactive: -13.2% |  |
| C=CCn1c(COc2ccccc2)nnc1SC(C)C(=O)N/N=C/c1cc(Cl)ccc1O (configuration not stated) | inactive: -15.3% |  |
| COc1ccc(NS(=O)(=O)c2ccc(NC(=O)c3ccc(CN4CCOCC4)cc3)cc2)cc1 | inactive: -4.61% |  |
| O=C(Nc1ccc(N2CCN(C(=O)c3ccco3)CC2)c(Cl)c1)c1cccs1 | inactive: -17.5% |  |
| Cn1c(CO)cnc1SCC(=O)c1ccc(Br)cc1 | inactive: -8.93% |  |
| CC(Nc1ccccc1CO)C(=O)Nc1cccc(Cl)c1Cl (configuration not stated) | inactive: 0.991% |  |
| S=C(NCCCN1CCOCC1)N1CCN(c2nc(-c3ccccc3)cs2)CC1 | inactive: -13.2% |  |
| Cc1cc(C(=O)N/N=C/c2ccc([N+](=O)[O-])s2)n[nH]1 | inactive: -6.06% |  |
| COc1ccc(/C=N/NC(=O)c2nc(-c3ccccc3)n(-c3ccccc3)n2)c(O)c1 | inactive: -18.1% |  |
| O=C(Nc1ccc(Cc2ccncc2)cc1)c1ccc(S(=O)(=O)N2CCCC2)cc1 | inactive: -0.827% |  |
| OCCNc1c2ccccc2nc2c(F)c(F)c(F)c(F)c12 | inactive: -2.52% |  |
| O=[N+]([O-])c1ccccc1S(=O)(=O)Nc1cccc2cccnc12 | inactive: -7.56% |  |
| CCOC(=O)c1ccccc1NC(=O)CSc1nc2ccccc2c(=O)n1CCCN1CCOCC1 | inactive: 0.291% |  |
| Cc1c(Cl)cccc1NC(=O)N1CCCN(c2nc(-c3ccccc3)ns2)CC1 | inactive: -3.2% |  |
| N#C/C(=C\c1ccc([N+](=O)[O-])o1)c1nc2ccccc2[nH]1 | inactive: -5% |  |
| Cc1cc(C)n2nc(C(=O)N/N=C/c3c4ccccc4cc4ccccc34)nc2n1 | inactive: -7.93% |  |
| O=S(=O)(c1ccccc1)N1CCN(c2ccnc3cc(Cl)ccc23)CC1 | inactive: 2.99% |  |
| O=C(COc1ccccc1)NCC(=O)N/N=C/c1ccc(O)cc1O | inactive: 10.1% |  |
| Cn1nnnc1Sc1ncnc2scc(-c3ccccc3Br)c12 | inactive: -6.21% |  |
| Nc1c2ccccc2nc2ccccc12 | inactive: -4.35% |  |
| O=C(CNC(=O)c1ccco1)N/N=C/c1cc(Br)ccc1O | inactive: 0.605% |  |
| C[C@@H](CN1C2=NC[C@H](Cc3ccccc3)N2C[C@H]1Cc1ccc(O)cc1)NC(=O)CCC1CCCCC1 | inactive: 1.67% |  |
| CCN(CC)CCNC(=O)c1ccc(NC(=O)c2ccc(Cl)c(S(=O)(=O)N3CCCCCC3)c2)cc1 | inactive: -1.29% |  |
| Cc1cccc2sc(NNC(=O)c3ccc(S(=O)(=O)N4CC(C)CC(C)C4)cc3)nc12 (configuration not stated) | inactive: -14% |  |

| SMILES | activity change, negative = inhibition | Potency |
| --- | --- | --- |
| CCCCOc1ccc(NC2=NC3(CCCC3)N=C(N)N2)cc1 | inactive: 1.38% |  |
| CC1(C(=O)N/N=C/c2ccc([N+](=O)[O-])o2)CC1(Br)Br (configuration not stated) | inactive: -2.6% |  |
| COc1cc(CC(=O)Nc2nc(-c3ccc(F)c(F)c3)cs2)cc(OC)c1OC | inactive: -3.38% |  |
| CN(c1ccccc1)S(=O)(=O)c1cccc(NC(=O)c2cc(=O)c3ccccc3o2)c1 | inactive: -0.345% |  |
| O=c1cc(N2CCN(c3ccccc3)CC2)[nH]c(=O)n1C1CCCCC1 | inactive: 2.44% |  |
| N#C/C(=C(/O)COC(=O)CSc1ccc(Cl)cc1)c1nc2ccccc2[nH]1 | inactive: -8.72% |  |
| CC(=O)c1cc(CN2CCC(C(=O)Nc3cccc(-c4cscn4)c3)CC2)cs1 | inactive: -1.74% |  |
| COc1cc(/C=N/Nc2snc(SC)c2C#N)cc(OC)c1OC | inactive: -9.89% |  |
| CCc1nc(N)nc(N)c1-c1ccc(N(C)Cc2ccccc2)c([N+](=O)[O-])c1 | inactive: -9.73% |  |
| CCN(CC)c1cc(C)c2cc(NC(=O)c3ccccc3OC)ccc2n1 | inactive: -12% |  |
| Cc1ccc2sc(N(CCCN(C)C)C(=O)c3ccc(S(=O)(=O)N4CCCCCC4)cc3)nc2c1C | inactive: 1.53% |  |
| CCOc1ccc(NC(=O)Nc2nnc(CC(=O)NCc3ccccc3)s2)cc1 | inactive: 2.13% |  |
| CCCCCn1c(CN2CCN(c3cccc(Cl)c3)CC2)nc2c1c(=O)[nH]c(=O)n2C | inactive: 4.7% |  |
| CCC(=O)NC(c1ccc(OC)c(OC)c1)c1cc(Cl)c2cccnc2c1O (configuration not stated) | inactive: -19% |  |
| NC(Cc1ccc(Cl)cc1)c1csc(Nc2cc(NCCCO)ncn2)n1 (configuration not stated) | inactive: 1.08% |  |
| COc1ccc(CC(N)c2csc(NC(=O)c3ccccc3OC)n2)cc1 (configuration not stated) | inactive: -15.2% |  |
| COc1cc(OC)c(OC)cc1/C=C1\CC(C)C/C(=C\c2cc(OC)c(OC)cc2OC)C1=O (configuration not stated) | inactive: -4.51% |  |
| O=C(Nc1cccc(S(=O)(=O)c2cccc(NC(=O)c3ccco3)c2)c1)c1ccco1 | inactive: 0.819% |  |
| O=C(CSC1=NNC(c2ccccn2)S1)Nc1ccc(C(F)(F)F)cc1 (configuration not stated) | inactive: -5.9% |  |
| CCOC(=O)c1c(SCCN2CCCCC2)n(-c2ccccc2)c(=S)n(-c2ccccc2)c1=O | inactive: -0.73% |  |
| O=C(Nc1ccc(N2CCN(C(=O)c3ccco3)CC2)c(Cl)c1)c1c(F)c(F)c(F)c(F)c1F | inactive: 2.69% |  |
| CCOc1ccc(C(CN2CCOCC2)C(C)=O)cc1OC (configuration not stated) | inactive: 1.8% |  |
| O=C(CNC(=O)c1cccc(F)c1)N/N=C/c1cc(Br)ccc1OC(=O)/C=C/c1ccco1 | inactive: -1.86% |  |
| O=c1cnnc(N/N=C/c2ccccn2)[nH]1 | inactive: 3.6% |  |
| Cc1ccc(C(=O)O)cc1N1C(=O)c2cccc3c([N+](=O)[O-])ccc(c23)C1=O | inactive: -15.6% |  |

Molecules from the list above with a cyano group, in the order listed:

| SMILES | activity change, negative = inhibition | Potency |
| --- | --- | --- |
| Cc1c(-c2cccc(Cl)c2)nc2ccccc2c1C(=O)OC/C(O)=C(\C#N)c1nc2ccccc2[nH]1 | inactive: -9.44% |  |
| CCOc1cc(/C=C(/C#N)c2nc3ccccc3[nH]2)ccc1Oc1ccc([N+](=O)[O-])cn1 | inactive: -2.22% |  |
| Cc1c(N/N=C(\C#N)C(=O)c2ccccc2)c(=O)n(-c2ccccc2)n1C | inactive: -3.2% |  |
| N#C/C(=C\c1ccc([N+](=O)[O-])o1)c1nc2ccccc2[nH]1 | inactive: -5% |  |
| N#C/C(=C(/O)COC(=O)CSc1ccc(Cl)cc1)c1nc2ccccc2[nH]1 | inactive: -8.72% |  |
| COc1cc(/C=N/Nc2snc(SC)c2C#N)cc(OC)c1OC | inactive: -9.89% |  |

Structural class: those above with a COOH group

| SMILES | activity change, negative = inhibition | Potency |
| --- | --- | --- |
| O=C(CSc1nnc(-c2ccc(Br)cc2)o1)Nc1cccc(C(=O)O)c1 |  | active: 3.98 µM |
| Cc1ccc(C(=O)O)cc1N1C(=O)c2cccc3c([N+](=O)[O-])ccc(c23)C1=O | inactive: -15.6% |  |

(listing goes on)

| SMILES | activity change, negative = inhibition | Potency |
| --- | --- | --- |
| C=CCN=c1scc(-c2ccc3c(c2)NC(=O)CO3)n1/N=C(\C)c1ccccn1 | inactive: -2.89% |  |
| COc1ccc(C(C)=O)cc1CC1(C)C(=O)Nc2ccc(-c3cccc(C(F)(F)F)c3)cc21 (configuration not stated) | inactive: 3.08% |  |
| Cc1ccnc(NC(=O)C2CCN(S(=O)(=O)c3c(C)c(C)cc(C)c3C)CC2)c1 | inactive: -6% |  |
| COc1ccccc1-c1ccc2c(c1)C(C)(Cc1cccc(F)c1)C(=O)N2 (configuration not stated) | inactive: -2.21% |  |
| Cn1c(/C=C/c2ccc(Cl)cc2Cl)c([N+](=O)[O-])c(=O)n(C)c1=O | inactive: -9.21% |  |
| C[C@H]1O[C@@H](O[C@H]2[C@@H](O)C[C@H](O[C@H]3[C@@H](O)C[C@H](O[C@H]4CC[C@@]5(C)[C@H](CC[C@@H]6[C@@H]5C[C@@H](O)[C@]5(C)[C@@H](C7=CC(=O)OC7)CC[C@]65O)C4)O[C@@H]3C)O[C@@H]2C)C[C@H](O)[C@@H]1O | inactive: 3.6% |  |
| O=C(CNC(=O)c1cccc(Br)c1)N/N=C/c1cc(Br)cc(Br)c1O | inactive: -19% |  |
| O=C(NC(Nc1nc2ccc([N+](=O)[O-])cc2s1)(C(F)(F)F)C(F)(F)F)c1ccccc1 | inactive: -7.13% |  |
| Cc1cccc(NC(c2ccc(C)s2)c2ccc3ccc(C)nc3c2O)n1 (configuration not stated) | inactive: -5.52% |  |
| Cc1ccccc1NC(=O)Nc1nc(C(N)C2CCCCC2)cs1 (configuration not stated) | inactive: 3.72% |  |
| COc1cc(C(=O)NC(=S)NNC(=O)c2cnccn2)cc(OC)c1OC | inactive: -7.31% |  |
| CN1C(=O)/C(=C/c2ccccc2F)Sc2ccc(C(=O)N3CCCC3)cc21 | inactive: -14.9% |  |
| CC(C)(C)c1ccc(OCCn2nc(C(=O)O)c3ccccc3c2=O)cc1 | inactive: -8.32% |  |
| O=C(c1ccc(S(=O)(=O)c2cccc(Cl)c2)c([N+](=O)[O-])c1)N1CCN(Cc2ccccc2)CC1 | inactive: 2% |  |
| COc1ccc(C(=O)N/N=C/c2cc(Br)ccc2O)cc1OC | inactive: -8.96% |  |
| CN(C)CCCNc1nc2cc(-c3ccc(F)cc3)sc2c(=O)n1C | inactive: -4.33% |  |
| O=C(Nc1c(Cl)cccc1Cl)Oc1cccc2cccnc12 | inactive: 4.64% |  |
| Nc1nonc1-n1nnc(C(=O)N/N=C/c2ccccc2O)c1CN1CCCC1 | inactive: -14.9% |  |
| CCOC(=O)C1CCN(c2cc3c(cc2NC(=O)c2ccccc2OCC)n(C)c(=O)n3C)CC1 | inactive: -4.33% |  |
| CC(NC1=CC(=O)c2cccnc2C1=O)C(O)c1ccccc1 (configuration not stated) | inactive: -12.2% |  |
| c1ccc(-c2cc3c(N4CCN(c5ccccc5)CC4)ncnc3s2)cc1 | inactive: -8.66% |  |
| Cn1ncc2c(Nc3cccc(Cl)c3)nc(Nc3cccc(Cl)c3)nc21 | inactive: -15.4% |  |
